Assay results published in PubChem BioAssay AID330 (DTP/NCI, 2004).
The list shows only some results of the screen, not a fair sample: it is rich in T/C values a quarter to a half above the control, in often repeated tests (any T/C) and in doses without a T/C. Further doses and runs are listed elsewhere. T/C: endpoint of the treated group in % of that of the vehicle group. Some doses have a count of surviving animals in place of a T/C: the source files T/C as zero there, which appears to mark a toxic dose or a test without result, not a measured value. Some doses without a T/C left all or most animals alive at the check, yet need not have been tolerated: the source hardly ever lists a survival T/C far under the control, and the zero likely stands for such cases as well. Survivors were counted at the toxicity check, usually on the fifth day, unless a day is given; later deaths do not show. Schedules are NCI's codes, read here as Q, the interval in days (D) or hours (H), X, the number of doses. Some entries hold several experiments; the values are given in rising order. Where survival is the endpoint, the PubChem record calls one and a half times the control and up active, and a quarter to a half above the control has no call in these data; cut-offs in other NCI protocols can differ. Some T/C values are followed by the survivors on the day toxicity was checked, most often the fifth; where none is given, no animal had died by that day.

System: P388 leukemia ip, CD2F1 mice, survival T/C
Assay: NCI In Vivo Anticancer Drug Screen. Data for tumor model P388 Leukemia (intraperitoneal) in CD2F1 (CDF1) mice
Settings: T/C endpoint: median survival time, higher T/C = longer survival
[1] = dose: 400.0 mg/kg/injection, schedule: Q04DX003 (ip), vehicle: saline
[2] = dose: 25.0 mg/kg/injection, schedule: Q01DX009 (ip), vehicle: water
[3] = dose: 50.0 mg/kg/injection, schedule: Q01DX009 (ip), vehicle: water
[4] = dose: 200.0 mg/kg/injection, schedule: Q01DX005 (ip), vehicle: saline with Tween-80
[5] = dose: 200.0 mg/kg/injection, schedule: Q01DX009 (ip), vehicle: distilled water + Tween-80
[6] = dose: 60.0 mg/kg/injection, schedule: Q01DX005 (ip), vehicle: saline with Tween-80
[7] = dose: 120.0 mg/kg/injection, schedule: Q01DX005 (ip), vehicle: saline with Tween-80
[8] = dose: 200.0 mg/kg/injection, schedule: Q01DX009 (ip), vehicle: saline with Tween-80
[9] = dose: 100.0 mg/kg/injection, schedule: Q01DX009 (ip), vehicle: saline with Tween-80
[10] = dose: 100.0 mg/kg/injection, schedule: Q01DX009 (ip), vehicle: saline
[11] = dose: 400.0 mg/kg/injection, schedule: Q01DX009 (ip), vehicle: saline with Tween-80
[12] = dose: 50.0 mg/kg/injection, schedule: Q01DX009 (ip), vehicle: saline
[13] = dose: 200.0 mg/kg/injection, schedule: Q01DX009 (ip), vehicle: saline

N=C(N)c1ccc(/C=C\C=C/c2cc3cc(C(=N)N)ccc3o2)cc1
T/C (dose: 6.25 mg/kg/injection, schedule: Q04DX003 (ip), vehicle: saline with Tween-80): 126 % of control | T/C (dose: 6.25 mg/kg/injection, schedule: Q04DX003 (ip), vehicle: saline): 137 % of control | T/C (dose: 12.5 mg/kg/injection, schedule: Q04DX003 (ip), vehicle: saline with Tween-80): 140 % of control | T/C (dose: 12.5 mg/kg/injection, schedule: Q04DX003 (ip), vehicle: saline): 147 % of control | survivor count (dose: 25.0 mg/kg/injection, schedule: Q04DX003 (ip), vehicle: saline): 6 of 6 | survivor count (dose: 50.0 mg/kg/injection, schedule: Q04DX003 (ip), vehicle: saline): 2 of 6 | survivor count (dose: 100.0 mg/kg/injection, schedule: Q04DX003 (ip), vehicle: saline): 2 of 6 | survivor count (dose: 200.0 mg/kg/injection, schedule: Q04DX003 (ip), vehicle: saline): 0 of 6 | survivor count [1]: 0 of 6

O=C1C2CC=CCC2C(=O)N1CC[P+](c1ccccc1)(c1ccccc1)c1ccccc1 (configuration not stated)
T/C (dose: 6.25 mg/kg/injection, schedule: Q01DX009 (ip), vehicle: water): 125 % of control | survivor count [2]: 6 of 6 | survivor count [3]: 5 of 6

Cc1cc(N(CCCl)CCCl)ccc1C=Nc1ccccc1-c1ccccc1
T/C (dose: 266.0 mg/kg/injection, schedule: Q01DX009 (ip), vehicle: Klucel (hydroxypropylcellulose) (HPC)): 135 % of control

CCC(=O)OCC1OC(OC2c3cc4c(cc3C(c3cc(OC)c(OC)c(OC)c3)C3C(=O)OCC23)OCO4)C(OC(=O)CC)C(OC(=O)CC)C1OC(=O)CC (configuration not stated)
survivor count (dose: 100.0 mg/kg/injection, schedule: Q01DX005 (ip), vehicle: saline with Tween-80): 3 of 5 | survivor count [4]: 0 of 5

COc1cc(CBr)ccc1OCc1ccccc1
survivor count [5]: 1 of 6 | survivor count (dose: 400.0 mg/kg/injection, schedule: Q01DX009 (ip), vehicle: distilled water + Tween-80): 0 of 6

c1ccc2c(c1)c1ccccc1c1n[se]nc21
survivor count [6]: 3 of 6 | survivor count [7]: 1 of 6 | survivor count (dose: 240.0 mg/kg/injection, schedule: Q01DX005 (ip), vehicle: saline with Tween-80): 1 of 6

O=C1Oc2ccc3ccccc3c2CC1C(=O)c1ccc(Cl)cc1 (configuration not stated)
survivor count [8]: 6 of 6

C[P+]1(CCc2ccc(Cl)cc2)CC=CC1
survivor count (dose: 100.0 mg/kg/injection, schedule: Q04DX002 (ip), vehicle: saline): 4 of 6 and 5 of 6 | survivor count (dose: 200.0 mg/kg/injection, schedule: Q04DX002 (ip), vehicle: saline): 1 of 6 | survivor count (dose: 400.0 mg/kg/injection, schedule: Q04DX002 (ip), vehicle: saline): 1 of 6

COC(=O)C(C)NC(=O)c1c2nc3c(C(=O)NC(C)C(=O)OC)ccc(C)c3oc-2c(C)c(=O)c1N (configuration not stated)
survivor count (dose: 12.5 mg/kg/injection, schedule: Q01DX005 (ip), vehicle: distilled water + Tween-80): 6 of 6 | survivor count (dose: 25.0 mg/kg/injection, schedule: Q01DX005 (ip), vehicle: saline with Tween-80): 6 of 6 | survivor count (dose: 50.0 mg/kg/injection, schedule: Q01DX005 (ip), vehicle: saline with Tween-80): 6 of 6 | survivor count (dose: 100.0 mg/kg/injection, schedule: Q01DX005 (ip), vehicle: distilled water + Tween-80): 6 of 6

C=C(C(=O)O)C(N)C(=O)O (configuration not stated)
survivor count (dose: 800.0 mg/kg/injection, schedule: Q01DX005 (ip), vehicle: saline): 0 of 5

Oc1cc2c3c(c1)c1cc4c(cc1c[n+]3CC2)OCO4
T/C (dose: 3.13 mg/kg/injection, schedule: Q01DX009 (ip), vehicle: other): 133 % of control | T/C (dose: 12.5 mg/kg/injection, schedule: Q01DX009 (ip), vehicle: water): 138 % of control | T/C [2]: 144 % of control [5 of 6 alive] | survivor count (dose: 40.0 mg/kg/injection, schedule: Q01DX005 (ip), vehicle: acid diluted with saline): 4 of 6 | survivor count (dose: 50.0 mg/kg/injection, schedule: Q01DX009 (ip), vehicle: other): 2 of 6 | survivor count [3]: 2 of 6 | survivor count (dose: 100.0 mg/kg/injection, schedule: Q01DX009 (ip), vehicle: water): 0 of 6 | survivor count (dose: 200.0 mg/kg/injection, schedule: Q01DX009 (ip), vehicle: water): 0 of 6

CCOC(=O)c1ccc(NN=NCCOC)cc1
T/C (dose: 100.0 mg/kg/injection, schedule: Q01DX009 (ip), vehicle: distilled water + Tween-80): 129 and 138 % of control | survivor count [5]: 6 of 6

Cc1ccc2c(c1)N=C(Nc1ccccc1)N=S2(C)=O (configuration not stated)
T/C [9]: 137 % of control | survivor count [8]: 6 of 6

CC1(CO)C(O)CCC2(C)C1CCC1CC3CC12CCC3(O)CO (configuration not stated)
T/C (dose: 30.0 mg/kg/injection, schedule: Q01DX005 (ip), vehicle: saline with Tween-80): 133 % of control | T/C (dose: 50.0 mg/kg/injection, schedule: Q01DX009 (ip), vehicle: Klucel (hydroxypropylcellulose) (HPC)): 126 and 136 % of control | T/C [6]: 130 % of control [5 of 6 alive] | T/C (dose: 67.0 mg/kg/injection, schedule: Q01DX009 (ip), vehicle: saline): 128 % of control | T/C (dose: 100.0 mg/kg/injection, schedule: Q01DX009 (ip), vehicle: Klucel (hydroxypropylcellulose) (HPC)): 137 and 141 % of control | T/C [9]: 125 % of control | T/C [10]: 147 % of control | survivor count (dose: 100.0 mg/kg/injection, schedule: Q03HX024 (ip), vehicle: Klucel (hydroxypropylcellulose) (HPC)): 3 of 8 | T/C [7]: 136 % of control | T/C (dose: 150.0 mg/kg/injection, schedule: Q01DX009 (ip), vehicle: saline): 145 % of control | T/C [8]: 132 % of control | T/C [11]: 141 % of control | survivor count [11]: 6 of 6 | T/C (dose: 400.0 mg/kg/injection, schedule: Q04DX003 (ip), vehicle: Klucel (hydroxypropylcellulose) (HPC)): 132 % of control

CCN(CC)CCNC(=O)c1ccc2c(c1)C(=O)c1ccccc1C2=O
survivor count [1]: 0 of 6

Oc1ccccc1C=NCc1ccccc1.[CH-]=C([CH2-])C.[Pd+2]
survivor count (dose: 50.0 mg/kg/injection, schedule: Q04DX003 (ip), vehicle: Klucel (hydroxypropylcellulose) (HPC)): 0 of 6 | survivor count (dose: 100.0 mg/kg/injection, schedule: Q04DX003 (ip), vehicle: Klucel (hydroxypropylcellulose) (HPC)): 0 of 6 | survivor count (dose: 200.0 mg/kg/injection, schedule: Q04DX003 (ip), vehicle: Klucel (hydroxypropylcellulose) (HPC)): 0 of 6

CCCCCCCCCCCC[N+]1(CC)CCOCC1
survivor count [12]: 1 of 6 | survivor count [10]: 1 of 6 | survivor count [13]: 0 of 6

O=C1/C(=C/c2ccccc2)CSC/C1=C\c1ccccc1
survivor count (dose: 200.0 mg/kg/injection, schedule: Q01DX005 (ip), vehicle: Klucel (hydroxypropylcellulose) (HPC)): 6 of 6

NC(CSCCc1ccncc1)C(=O)O (configuration not stated)
survivor count [12]: 6 of 6 | survivor count [10]: 6 of 6 | survivor count [13]: 6 of 6

NC12CC3CC(CC(C3)C1)C2
survivor count [4]: 0 of 5

S=C(Nc1ccc(N=Nc2ccccc2)cc1)SCc1ccc(Cl)cc1
survivor count (dose: 50.0 mg/kg/injection, schedule: Q01DX009 (ip), vehicle: suspension in saline): 4 of 6 | survivor count (dose: 100.0 mg/kg/injection, schedule: Q01DX009 (ip), vehicle: suspension in saline): 6 of 6

O=C(/C=C/c1c2ccccc2cc2ccccc12)c1ccc(C(=O)/C=C/c2c3ccccc3cc3ccccc23)cc1
survivor count (dose: 50.0 mg/kg/injection, schedule: Q01DX009 (ip), vehicle: saline with Tween-80): 6 of 6 | survivor count [9]: 6 of 6 | survivor count [8]: 6 of 6
